In the supplement of paper PMC8728848:
Some of the results follow.

Legend:
Test in all cases: glycan array binding signal (z-score within array); higher = stronger binding
Conditions in all cases: glycan notation: IUPAC condensed, linker removed
[1] = target: Gal(a1-3)Gal(b1-4)GlcNAc(b1-2)Man
In short: (§1)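 Glycan array binding is given as a within-array Z-score, which can be read as non-binding when negative. The arrays, 3228 of them, came from the Consortium for Functional Glycomics database and were retained only where the protein sequence was available. Z-scores were averaged across arrays of the same protein sequence at different concentrations or buffers and across linkers.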

[2] = target: Gal(a1-3)Gal(b1-4)GlcNAc(b1-2)Man(a1-3)[Gal(a1-3)Gal(b1-4)GlcNAc(b1-2)Man(a1-6)]Man(b1-4)GlcNAc(b1-4)GlcNAc
In short: as §1

[3] = target: Gal(a1-3)Gal(b1-4)GlcNAc(b1-3)GalNAc
In short: as §1

[4] = target: Gal(a1-3)Gal(b1-4)GlcNAc(b1-6)GalNAc
In short: as §1

[5] = target: Gal(a1-3)Gal(b1-4)[Fuc(a1-3)]GlcNAc
In short: as §1

[6] = target: Gal(a1-3)Gal(b1-4)[Fuc(a1-3)]GlcNAc(b1-2)Man(a1-3)[Gal(a1-3)Gal(b1-4)[Fuc(a1-3)]GlcNAc(b1-2)Man(a1-6)]Man(b1-4)GlcNAc(b1-4)GlcNAc
In short: as §1

[7] = target: Gal(a1-3)GalNAc
In short: as §1

[8] = target: Gal(a1-3)[Gal(a1-4)]Gal(b1-4)GlcNAc
In short: as §1

[9] = target: Gal(a1-4)Gal(b1-3)GlcNAc(b1-2)Man(a1-3)[Gal(a1-4)Gal(b1-3)GlcNAc(b1-2)Man(a1-6)]Man(b1-4)GlcNAc(b1-4)GlcNAc
In short: as §1

[10] = target: Gal(a1-4)Gal(b1-4)Glc
In short: as §1

[11] = target: Gal(a1-4)Gal(b1-4)GlcNAc
In short: as §1

[12] = target: Gal(a1-4)Gal(b1-4)GlcNAc(b1-2)Man(a1-3)[Gal(a1-4)Gal(b1-4)GlcNAc(b1-2)Man(a1-6)]Man(b1-4)GlcNAc(b1-4)GlcNAc
In short: as §1

[13] = target: Gal(a1-4)Gal(b1-4)GlcNAc(b1-3)Gal(b1-4)Glc
In short: as §1

[14] = target: Gal(a1-4)GlcNAc
In short: as §1

[15] = target: Gal(a1-6)Glc
In short: as §1

[16] = target: Gal(b1-2)Gal
In short: as §1

[17] = target: Gal(b1-3)Gal
In short: as §1

[18] = target: Gal(b1-3)Gal(b1-4)GlcNAc
In short: as §1

[19] = target: Gal(b1-3)GalNAc
In short: as §1

[20] = target: Gal(b1-3)GalNAc(a1-3)[Fuc(a1-2)]Gal(b1-4)Glc
In short: as §1

[21] = target: Gal(b1-3)GalNAc(a1-3)[Fuc(a1-2)]Gal(b1-4)GlcNAc
In short: as §1

[22] = target: Gal(b1-3)GalNAc(b1-3)Gal
In short: as §1

[23] = target: Gal(b1-3)GalNAc(b1-3)Gal(a1-4)Gal(b1-4)Glc
In short: as §1

[24] = target: Gal(b1-3)GalNAc(b1-4)Gal(b1-4)Glc
In short: as §1

[25] = target: Gal(b1-3)GalNAc(b1-4)[Neu5Ac(a2-3)]Gal(b1-4)Glc
In short: as §1

[26] = target: Gal(b1-3)GlcNAc
In short: as §1

[27] = target: Gal(b1-3)GlcNAc(a1-3)Gal(b1-4)GlcNAc
In short: as §1

[28] = target: Gal(b1-3)GlcNAc(a1-6)Gal(b1-4)GlcNAc
In short: as §1

[29] = target: Gal(b1-3)GlcNAc(b1-2)Man
In short: as §1

[30] = target: Gal(b1-3)GlcNAc(b1-2)Man(a1-3)[Gal(b1-3)GlcNAc(b1-2)Man(a1-6)]Man(b1-4)GlcNAc(b1-4)GlcNAc
In short: as §1

[31] = target: Gal(b1-3)GlcNAc(b1-2)Man(a1-3)[Gal(b1-3)GlcNAc(b1-2)Man(a1-6)]Man(b1-4)GlcNAc(b1-4)[Fuc(a1-6)]GlcNAc
In short: as §1

[32] = target: Gal(b1-3)GlcNAc(b1-2)Man(a1-3)[GlcNAc(b1-4)][Gal(b1-3)GlcNAc(b1-2)Man(a1-6)]Man(b1-4)GlcNAc(b1-4)GlcNAc
In short: as §1

[33] = target: Gal(b1-3)GlcNAc(b1-2)[Gal(b1-3)GlcNAc(b1-6)]Man(a1-6)[Gal(b1-3)GlcNAc(b1-2)Man(a1-3)]Man(b1-4)GlcNAc(b1-4)GlcNAc
In short: as §1

[34] = target: Gal(b1-3)GlcNAc(b1-3)Gal(b1-3)GlcNAc
In short: as §1

[35] = target: Gal(b1-3)GlcNAc(b1-3)Gal(b1-4)Glc
In short: as §1

[36] = target: Gal(b1-3)GlcNAc(b1-3)Gal(b1-4)GlcNAc
In short: as §1

[37] = target: Gal(b1-3)GlcNAc(b1-3)Gal(b1-4)GlcNAc(b1-2)Man(a1-3)[Gal(b1-3)GlcNAc(b1-3)Gal(b1-4)GlcNAc(b1-2)Man(a1-6)]Man(b1-4)GlcNAc(b1-4)GlcNAc
In short: as §1

B1: EUL D1A (Oryza sativa) (protein)
chain: MFGFGHHHNQAPAAPSDPNQIFKIFCRANENYCLTVRDSAVVLAPVNPKDEHQHWFKDMRFSTKVKDGEGMPAFALVNKATGLAVKHSLGQSHPVKLVPFNPEYEDASVLWTESKDVGKGFRCIRMVNNTRLNLDAFHGDKDHGGVRDGTTVVLWEWCKGDNQSWKILPWGPEAHSSSPGAATACTIGGVPVHTVRVFSAAGEDYCLTVRNGTACLAPKNPRDDYQHWIKDMRHSNKIRDEEGYPAFALVNKVTGEAIKHSTGQGHPVKLVPYNPEYQDESVLWTESKDVGKGFRCIRMVNNIYLNFDAFHGDKDHGGIHDGTEIVLWKWCEGDNQRWKILPWILEQKLISEEDLNSAVDHHHHHH
For B1, the “glycan array binding signal (z-score)” value [1] was 0.232, the “glycan array binding signal (z-score)” value [2] was 0.16 and the “glycan array binding signal (z-score)” value [3] was -1.15. The “glycan array binding signal (z-score)” value [4] was 1.3, the “glycan array binding signal (z-score)” value [5] was -0.6 and the “glycan array binding signal (z-score)” value [6] was 1.75. The “glycan array binding signal (z-score)” value [7] was 0.239, the “glycan array binding signal (z-score)” value [8] was 0.063 and the “glycan array binding signal (z-score)” value [9] was 1.15. The “glycan array binding signal (z-score)” value [10] was 0.086, the “glycan array binding signal (z-score)” value [11] was 0.656 and the “glycan array binding signal (z-score)” value [12] was -0.078. The “glycan array binding signal (z-score)” value [13] was -1.06, the “glycan array binding signal (z-score)” value [14] was 0.202 and the “glycan array binding signal (z-score)” value [15] was -0.051. For the same binder, the “glycan array binding signal (z-score)” value [16] was 1.06, the “glycan array binding signal (z-score)” value [17] was -0.722 and the “glycan array binding signal (z-score)” value [18] was -0.557. The “glycan array binding signal (z-score)” value [19] was -0.384, the “glycan array binding signal (z-score)” value [20] was 0.111 and the “glycan array binding signal (z-score)” value [21] was -1.11. The “glycan array binding signal (z-score)” value [22] was -0.437, the “glycan array binding signal (z-score)” value [23] was 0.844 and the “glycan array binding signal (z-score)” value [24] was 0.314. For the same binder, the “glycan array binding signal (z-score)” value [25] was 0.083, the “glycan array binding signal (z-score)” value [26] was -0.925 and the “glycan array binding signal (z-score)” value [27] was -0.323. The “glycan array binding signal (z-score)” value [28] was -0.331, the “glycan array binding signal (z-score)” value [29] was -0.463 and the “glycan array binding signal (z-score)” value [30] was 1.87. For the same binder, the “glycan array binding signal (z-score)” value [31] was -0.148, the “glycan array binding signal (z-score)” value [32] was 1.07 and the “glycan array binding signal (z-score)” value [33] was 0.033. The “glycan array binding signal (z-score)” value [34] was 0.957, the “glycan array binding signal (z-score)” value [35] was -0.916 and the “glycan array binding signal (z-score)” value [36] was -0.797. For the same binder, the “glycan array binding signal (z-score)” value [37] was -0.811.
